# Drug screen on melanoma cell lines: apoptosis marker

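The test systems are human melanoma cell lines, treated with two drugs together for 72 h and then stained and imaged. The read-out is the fraction of cleaved-PARP-positive nuclei, in % of that fraction in the DMSO control; 200 means twice the control level of this apoptosis marker. Every drug was used at one fixed concentration, the higher of two screened. No replicate spread is given; individual values may be noisy. The marker varies much from line to line, for technical or biological reasons.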 This is part of the screen, not chosen by result. A dash means that no value is listed here.

Drug key:
PF-04217903: OCCn1cc(-c2cnc3nnn(Cc4ccc5ncccc5c4)c3n2)cn1 at 5000 nM
BMS-536924: Cc1cc(N2CCOCC2)cc2[nH]c(-c3c(NC[C@@H](O)c4cccc(Cl)c4)cc[nH]c3=O)nc12 at 1000 nM
lapatinib: CS(=O)(=O)CCNCc1ccc(-c2ccc3ncnc(Nc4ccc(OCc5cccc(F)c5)c(Cl)c4)c3c2)o1 at 4000 nM
etoposide: COc1cc([C@@H]2c3cc4c(cc3[C@@H](O[C@@H]3O[C@@H]5CO[C@@H](C)O[C@H]5[C@H](O)[C@H]3O)[C@H]3COC(=O)[C@H]23)OCO4)cc(OC)c1O at 100 nM
MK-1775: C=CCn1c(=O)c2cnc(Nc3ccc(N4CCN(C)CC4)cc3)nc2n1-c1cccc(C(C)(C)O)n1 at 100 nM
ABT-263: CC1(C)CCC(c2ccc(Cl)cc2)=C(CN2CCN(c3ccc(C(=O)NS(=O)(=O)c4ccc(N[C@H](CCN5CCOCC5)CSc5ccccc5)c(S(=O)(=O)C(F)(F)F)c4)cc3)CC2)C1 at 2000 nM
fingolimod: CCCCCCCCc1ccc(CCC(N)(CO)CO)cc1 at 10000 nM
ZM336372: Cc1ccc(NC(=O)c2cccc(N(C)C)c2)cc1NC(=O)c1ccc(O)cc1 at 10000 nM
A-769662: N#Cc1c(O)c2c(-c3ccc(-c4ccccc4O)cc3)csc2[nH]c1=O at 10000 nM

Combination	SK-MEL-28	RPMI-7951	SK-MEL-2	G-361	A101D	SK-MEL-30	UACC-62	WM451Lu
lapatinib + BMS-536924	47.8	151	105	134	320	99.7	205	87.3
BMS-536924 + ABT-263	350	206	397	316	71.6	417	128	145
etoposide + BMS-536924	106	64.2	333	122	94.7	103	100	235
ABT-263 + PF-04217903	456	187	141	98.1	372	213	87.1	160
fingolimod + ZM336372	-	4990	191	12900	5320	2000	202	2490
fingolimod + A-769662	14600	1570	9200	9720	1580	968	403	3540
lapatinib + A-769662	108	204	42.3	143	292	89.5	206	77.8
PF-04217903 + BMS-536924	88.0	101	97.5	114	135	118	77.5	210
ZM336372 + PF-04217903	80.6	88.9	62.5	140	162	14.3	111	115
ABT-263 + A-769662	308	202	137	180	620	412	203	204
fingolimod + BMS-536924	-	-	23000	8640	2640	1930	139	1840
BMS-536924 + ZM336372	88.0	131	226	96.0	127	31.0	97.6	154
fingolimod + lapatinib	17300	1130	5370	17000	1120	3010	67.3	2380
lapatinib + MK-1775	152	121	206	145	341	335	321	71.6
etoposide + PF-04217903	28.0	76.9	178	108	33.9	59.1	142	109
ZM336372 + A-769662	33.1	131	130	48.0	190	48.4	27.0	160
lapatinib + etoposide	97.5	108	318	243	85.2	90.6	449	187
etoposide + ABT-263	91.9	405	325	142	142	717	248	175
PF-04217903 + A-769662	79.5	85.7	113	67.0	87.9	103	9.4	175
MK-1775 + A-769662	293	90.7	90.1	102	150	91.7	166	85.6
ABT-263 + ZM336372	498	66.8	365	173	290	269	130	131
MK-1775 + BMS-536924	138	225	85.8	112	89.4	285	212	318
MK-1775 + PF-04217903	333	82.2	125	58.8	131	126	128	131
A-769662 + etoposide	81.5	74.9	215	44.9	95.8	79.8	199	126
MK-1775 + ZM336372	270	116	47.5	94.4	147	178	162	77.2
lapatinib + ZM336372	139	267	56.3	370	1790	30.3	236	51.2
fingolimod + etoposide	1320	1890	2560	15600	689	2670	284	11200
etoposide + MK-1775	136	108	198	68.9	278	128	113	39.0
lapatinib + PF-04217903	104	206	50.4	199	36.5	230	175	28.1
BMS-536924 + A-769662	97.1	55.6	120	66.6	42.6	181	151	55.3
MK-1775 + ABT-263	450	199	475	210	488	807	173	501
PF-04217903 + fingolimod	380	332	223	481	3080	1460	120	4730

For reference, 3 entries once more:

Combination,SK-MEL-28,RPMI-7951,SK-MEL-2,G-361,A101D,SK-MEL-30,UACC-62,WM451Lu
etoposide + ABT-263,91.9,405,325,142,142,717,248,175
PF-04217903 + fingolimod,380,332,223,481,3080,1460,120,4730
etoposide + PF-04217903,28.0,76.9,178,108,33.9,59.1,142,109

Source: doi:10.1371/journal.pone.0140310, primary screening data, rounded.